Data taken from US20100310467A1, “COMPOSITION AND METHOD FOR GENERATING A METABOLIC PROFILE USING 13C-MR DETECTION” (priority 2007, published 2010).

Experiments:
fibrotic rat liver = assay: In vivo 13C-chemical shift imaging of fibrotic rat liver (CCl4 induced); design: species or system Wistar rat; details: for 13C-malate signal detection in fibrotic rat liver: CCl4 over 40 days, 2 ml of about 50 mM imaging medium
normal rat liver = assay: In vivo 13C-chemical shift imaging of normal rat liver; design: species or system Wistar rat; details: 2 ml of about 50 mM imaging medium, imaging 15 s after start of injection

SMILES: [2H]/C(C(=O)[O-])=C(/[2H])[13C](=O)[O-].[Na+].[Na+] [sodium ^13C1-fumarate-d2]
- 13C-malate signal detection in fibrotic rat liver (fibrotic rat liver): both the ^13C-fumarate and ^13C-malate signal could be detected
- 13C-malate signal detection in fibrotic rat liver (fibrotic rat liver; listed as 13C1-fumarate-d2): could be detected
- 13C-malate signal of fibrotic rat liver compared to normal rat liver (fibrotic rat liver; metabolic profile, compared to Example 8): significantly higher
- 13C-malate signal detection in normal rat liver (normal rat liver): Only the ^13C-fumarate signal could be detected
- 13C-malate signal detection in normal rat liver (normal rat liver; listed as 13C1-fumarate-d2): too low to detect
